Test results taken from patent US10668055B2, “Cancer treatment using combinations of ERK and RAF inhibitors” (BIOMED VALLEY DISCOVERIES, INC., priority 2013, dated 2020).
For part of these data: At least one compound was matched to its structure with a doubt left. Some results were stated once for a whole list of compounds, not compound by compound.

Columns and labels:
A375 cells [1] = experiment: Dose escalation study in A375 cells; format: cell-based, human; settings: within weeks following treatment
Description: Single agent dose escalations were performed based on Little et al., 2011 and is outlined in FIG. 25. Cells were then allowed to grow until 70-90% confluence and split. […] Medium was refreshed every 3-4 days. When cells again reached about 40-60% confluence, the dose was escalated. In the event that the 40-60% window was missed, the cells were split again and dosed once they reached 40-60% confluence. Again, medium was refreshed every 3-4 days. The process was repeated as required (FIG. 25).

[2] = test system: melanoma xenograft model derived from biopsies obtained from a patient; experiment: Melanoma xenograft model derived from patient biopsies after progression on vemurafenib; format: in vivo; settings: model with acquired cross-resistance
A375 cells [3] = settings: 72 hour CellTiter-Glo assay (Greger et al., 2012; King et al., 2013); read-out: Published IC50; cited from earlier work

For CC(=O)Nc1cccc(-n2c(=O)n(C3CC3)c(=O)c3c(Nc4ccc(I)cc4F)n(C)c(=O)c(C)c32)c1 [Trametinib], the “Concentration in which isolated cells grow rapidly, relative to growth IC50” value (A375 cells [1]) is listed as over 10 fold, the Anti-tumor response [2] is listed as “insensitive” and the IC50 (A375 cells [3]) is listed as 5 ± 3 nM.
